Values from PubChem BioAssay AID1259308 (NCATS, 2017)

Screen: 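Knock-downs that increase output of a recombinant reporter protein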 (primary screen)
Cells: human HEK293 embryonic kidney cells stably expressing firefly luciferase (HEK-CMV-Luc2-Hygro)
Reagents: single siRNA against human genes, 0.8 pmol siRNA per well
Duration: 72 h
Measurement: 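Luciferase light (ONE-Glo) measured on one replicate plate set and viability (CellTiter-Glo) on the other, scaled to a negative control siRNA, with robust z-scores and luciferase per cell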
Reading the numbers: total luciferase, z-score and total luciferase, % of control: higher = more reporter protein produced; luciferase per cell, z-score: higher = more reporter output per viable cell; viable cells, % of control: higher = more viable cells
Active means: 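An siRNA counts as active if its total luciferase robust z-score exceeds 3; genes with two or more such siRNAs out of three were retested with fresh siRNAs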
Calls: active = raised luciferase; inactive = no rise
This is an unselected part of about 59,000 reagents tested. About 1,510 of all reagents (2.6%) count as active. 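Calls use total luciferase alone and ignore viability, so some active siRNAs may act by altering cell number.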 The numbers tell different reagents against one gene apart. No sequences are given here.

target	reagent	total luciferase, z-score	total luciferase, % of control	luciferase per cell, z-score	viable cells, % of control	Outcome
TNS1 (tensin 1)	1	-0.11	79.7	0.233	83.8	inactive
TNS1 (tensin 1)	2	-0.32	75.5	0.474	74.5	inactive
TNS1 (tensin 1)	3	0.621	94.2	1.39	73	inactive
ANKRD29 (ankyrin repeat domain 29)	1	1.99	122	1.56	90	inactive
ANKRD29 (ankyrin repeat domain 29)	2	0.323	88.3	-0.000395	98.7	inactive
ANKRD29 (ankyrin repeat domain 29)	3	1.31	108	0.975	93.4	inactive
CT55P2 (CT55 pseudogene 2)	1	-0.556	70.8	1.01	60.7	inactive
CT55P2 (CT55 pseudogene 2)	2	0.994	102	1.1	85	inactive
CT55P2 (CT55 pseudogene 2)	3	1.97	121	1.43	92.8	inactive
COX5A (cytochrome c oxidase subunit 5A)	1	0.794	97.7	0.453	96.9	inactive
COX5A (cytochrome c oxidase subunit 5A)	2	4.02	162	2.61	91	active
COX5A (cytochrome c oxidase subunit 5A)	3	0.244	86.7	0.863	77.2	inactive
GRIK1 (glutamate ionotropic receptor kainate type subunit 1)	1	-1.15	59	-1.56	99.5	inactive
GRIK1 (glutamate ionotropic receptor kainate type subunit 1)	2	1.31	108	0.458	107	inactive
GRIK1 (glutamate ionotropic receptor kainate type subunit 1)	3	0.339	88.6	-0.301	107	inactive
OR52K2 (olfactory receptor family 52 subfamily K member 2)	1	0.34	88.6	0.207	93.8	inactive
OR52K2 (olfactory receptor family 52 subfamily K member 2)	2	-0.878	64.4	-0.621	84.8	inactive
OR52K2 (olfactory receptor family 52 subfamily K member 2)	3	-0.798	66	-0.522	84.6	inactive
FIRRM (FIGNL1 interacting regulator of recombination and mitosis)	1	-0.0051	81.8	-0.14	94.8	inactive
FIRRM (FIGNL1 interacting regulator of recombination and mitosis)	2	0.05	82.9	-0.166	96.7	inactive
FIRRM (FIGNL1 interacting regulator of recombination and mitosis)	3	-0.903	63.9	-1.42	104	inactive

Next part; the last 4 above are carried over.
target	reagent	total luciferase, z-score	total luciferase, % of control	luciferase per cell, z-score	viable cells, % of control	Outcome
OR52K2 (olfactory receptor family 52 subfamily K member 2)	3	-0.798	66	-0.522	84.6	inactive
FIRRM (FIGNL1 interacting regulator of recombination and mitosis)	1	-0.0051	81.8	-0.14	94.8	inactive
FIRRM (FIGNL1 interacting regulator of recombination and mitosis)	2	0.05	82.9	-0.166	96.7	inactive
FIRRM (FIGNL1 interacting regulator of recombination and mitosis)	3	-0.903	63.9	-1.42	104	inactive
RPL5P1 (ribosomal protein L5 pseudogene 1)	1	-2.88	24.7	-1.76	43.8	inactive
RPL5P1 (ribosomal protein L5 pseudogene 1)	2	-1	61.9	-0.132	71.6	inactive
RPL5P1 (ribosomal protein L5 pseudogene 1)	3	-3.09	20.4	-3.2	52.9	inactive
SPAAR (small regulatory polypeptide of amino acid response)	1	-0.908	63.8	-0.698	85.7	inactive
SPAAR (small regulatory polypeptide of amino acid response)	2	-0.499	72	-0.62	94.7	inactive
SPAAR (small regulatory polypeptide of amino acid response)	3	5.93	200	3.28	94.3	active
PELO (pelota mRNA surveillance and ribosome rescue factor)	1	1.19	106	0.859	94.2	inactive
PELO (pelota mRNA surveillance and ribosome rescue factor)	2	-0.25	76.9	-0.935	110	inactive
PELO (pelota mRNA surveillance and ribosome rescue factor)	3	-0.648	69	-0.854	96.5	inactive
PGAP6 (post-GPI attachment to proteins 6)	1	-1.15	59	-0.843	82.4	inactive
PGAP6 (post-GPI attachment to proteins 6)	2	0.265	87.2	0.21	92.2	inactive
PGAP6 (post-GPI attachment to proteins 6)	3	-0.483	72.3	0.0403	79.9	inactive
FOXJ1 (forkhead box J1)	1	0.0185	82.3	-0.566	107	inactive
FOXJ1 (forkhead box J1)	2	-1.95	43	-2.27	87.4	inactive
FOXJ1 (forkhead box J1)	3	0.208	86	-0.452	108	inactive
REV3L (REV3 like, DNA directed polymerase zeta catalytic subunit)	1	1.07	103	0.923	90.4	inactive
REV3L (REV3 like, DNA directed polymerase zeta catalytic subunit)	2	-0.364	74.6	-0.746	102	inactive
REV3L (REV3 like, DNA directed polymerase zeta catalytic subunit)	3	-0.343	75.1	-0.628	99	inactive
BBOX1 (gamma-butyrobetaine hydroxylase 1)	1	-0.658	68.8	-0.586	89.7	inactive
BBOX1 (gamma-butyrobetaine hydroxylase 1)	2	0.813	98.1	1.04	83.3	inactive
BBOX1 (gamma-butyrobetaine hydroxylase 1)	3	0.564	93.1	0.569	89.5	inactive
SPATA18 (spermatogenesis associated 18)	1	2.84	138	1.75	97.5	inactive
SPATA18 (spermatogenesis associated 18)	2	-0.00757	81.7	-0.0814	93.3	inactive
SPATA18 (spermatogenesis associated 18)	3	1.71	116	0.93	101	inactive
TRIM4 (tripartite motif containing 4)	1	0.172	85.3	-0.211	101	inactive
TRIM4 (tripartite motif containing 4)	2	-0.626	69.4	-0.975	100	inactive
TRIM4 (tripartite motif containing 4)	3	-0.0429	81	0.824	72.9	inactive
MBD3 (methyl-CpG binding domain protein 3)	1	0.832	98.4	0.858	87.7	inactive
MBD3 (methyl-CpG binding domain protein 3)	2	3.31	148	2.83	78.4	active
MBD3 (methyl-CpG binding domain protein 3)	3	2.19	125	1.86	86	inactive
ANXA4 (annexin A4)	1	-0.256	76.8	-0.388	95	inactive
ANXA4 (annexin A4)	2	-0.265	76.6	-0.557	99.1	inactive
ANXA4 (annexin A4)	3	-0.55	70.9	-0.366	87.3	inactive
UFL1 (UFM1 specific ligase 1)	1	0.0414	82.7	-0.493	105	inactive
UFL1 (UFM1 specific ligase 1)	2	-0.464	72.7	-1.09	108	inactive
UFL1 (UFM1 specific ligase 1)	3	2.78	137	3.33	63.7	inactive
